In the supplement of paper PMC3334620:
Over roughly 33,000 sequences, “E-score (-0.5 to 0.5)” has its median near -0.0059; the highest 2% begin near 0.26. The list shows a part of the results.

These sequences were tested against T1, Cin5 (UniProt P40917) (assay: PBM E-score (8-mer binding enrichment) (E-score (-0.5 to 0.5)); higher = stronger / more preferred TF binding). Conditions: protein concentration: 100 nM; construct: GST-full length.
T1 sequence: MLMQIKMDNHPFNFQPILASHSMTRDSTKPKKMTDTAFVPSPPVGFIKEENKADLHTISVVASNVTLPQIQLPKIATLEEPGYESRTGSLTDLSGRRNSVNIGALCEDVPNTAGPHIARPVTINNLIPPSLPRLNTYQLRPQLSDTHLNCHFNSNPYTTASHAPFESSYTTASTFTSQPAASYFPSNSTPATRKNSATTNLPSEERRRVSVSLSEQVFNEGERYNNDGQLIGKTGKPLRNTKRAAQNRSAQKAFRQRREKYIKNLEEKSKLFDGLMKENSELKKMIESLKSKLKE
In short: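 Each ungapped eight-base word and its reverse complement, pooled, received an E-score from the Universal PBM Analysis Suite. Underlying scans, normalised with masliner, recorded fluorescent anti-GST bound to GST-tagged yeast transcription factors. These were applied at about 100-200 nM to universal all-10-mer Agilent arrays double-stranded by primer extension.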

| Sequence | PBM E-score |
| --- | --- |
| AATGCGAC | 0.109 |
| GTTAGTTA | 0.225 |
| AATAGATG | 0.23 |
| CGTGCTGC | -0.204 |
| ACACTCGA | 0.0854 |
| GCCGAGCC | -0.112 |
| CACTGTCC | -0.152 |
| CATTTGAA | 0.0456 |
| CTCTCCGC | -0.0751 |
| AACTGATA | 0.112 |
| CTGCAACC | -0.163 |
| GTACTTTA | 0.18 |
| CCCAGCCG | -0.234 |
| TAGTGAAA | -0.0594 |
| CCCTAGGC | -0.122 |
| CGTACTAG | -0.0725 |
| GGACCTTA | -0.0841 |
| CTACCCGA | -0.0656 |
| ATGACCGA | -0.0424 |
| AGAGGCGG | -0.106 |
| CGGGCACC | -0.278 |
| AAACTCTG | 0.0517 |
| ATTTTCTA | 0.172 |
| GGTACCAA | -0.056 |
| AAAAGTTC | 0.206 |

| Sequence | PBM E-score |
| --- | --- |
| ATGCGTAA | 0.19 |
| TATACCCA | -0.0483 |
| CCCTTGCG | -0.282 |
| AGTGTATC | 0.125 |
| CGCAAGTC | -0.197 |
| AGGGTCGG | -0.243 |
| AGAGCACT | -0.127 |
| CGGGTATA | 0.117 |
| CCGCTGGC | -0.244 |
| GAAACACC | 0.0555 |
| CATAAGGG | 0.1 |
| GCCCACTA | -0.0597 |
| AGCCTATA | 0.0429 |
| AGTCCCCG | -0.186 |
| AATTGATC | 0.0081 |
| AGTGAGAT | 0.111 |
| ACATACGG | -0.0479 |
| CTCCACCA | -0.244 |
| GGTCTAAA | -0.061 |
| TAAGACCA | 0.0532 |
| CGAGCTGC | -0.01 |
| ACTTTCTA | 0.0739 |
| GAAACAAC | -0.0472 |
| GGACCAGA | -0.197 |
| AACGACCA | 0.0948 |

Part of the list above, comma-delimited:
Sequence,PBM E-score
AGTGAGAT,0.111
ACATACGG,-0.0479
CTCCACCA,-0.244
GGTCTAAA,-0.061
TAAGACCA,0.0532

Remaining list, next part

| Sequence | PBM E-score |
| --- | --- |
| AGAACTGG | 0.0622 |
| GGGGGCTA | -0.375 |
| ATGCTTCA | 0.0559 |
| GGAGGACA | -0.188 |
| AATGGCAT | 0.32 |
| AATACTGA | 0.121 |
| AAGCGACC | 0.158 |
| TACAGGGA | -0.188 |
| CGTCGGAC | -0.191 |
| AAGTCCAA | 0.0423 |
| ATCGTACC | -0.121 |
| CAGCTTAC | 0.312 |
| CACGCAAA | 0.0157 |
| AATTTCCA | 0.112 |
| GGTAGGCA | -0.141 |
| AAAGGTGC | -0.0891 |
| GGGACTAA | -0.153 |
| AGCTGCTC | 0.0232 |
| CGAGTTGA | 0.0697 |
| GCGCATCA | 0.0295 |
| GCACGGAA | 0.111 |
| AAAAGGGC | -0.137 |
| AGGTAGAA | 0.0884 |
| CTGGTCAA | -0.0686 |
| CTAGACCA | -0.0913 |

Looked up above.
PBM E-score with CGAGTTGA reads 0.0697
PBM E-score with CAGCTTAC reads 0.312

Two entries picked at random from those above, as already listed:

| Sequence | PBM E-score |
| --- | --- |
| CGTGCTGC | -0.204 |
| CATAAGGG | 0.1 |

(continued)

| Sequence | PBM E-score |
| --- | --- |
| CGGCCTGA | -0.22 |
| AAGCGGCC | -0.25 |
| ATTTAGAA | -0.064 |
| CCGTACCG | -0.199 |
| ATATTATA | 0.265 |
| ATACACCG | 0.00374 |
| ACGGAAGA | 0.111 |
| AACCATTA | 0.201 |
| AGGAGCTC | -0.255 |
| CCGGTCTA | -0.302 |
| CAGGTCTA | 0.0224 |
| GAGGATGA | 0.0877 |
| AGACCATC | 0.06 |
| CACTCCTC | -0.104 |
| CTACGACC | -0.0935 |
| AGCTCCGG | -0.00362 |
| GGCACAAA | -0.0593 |
| GACAAAGA | 0.16 |
| CAGTGTAA | 0.0741 |
| CACGAGCG | -0.127 |
| GGACCCAC | -0.0783 |
| CTGATACC | 0.0112 |
| GACTCATA | -0.0292 |
| AGAAATCG | 0.043 |
| TCGCGTAA | 0.257 |

| Sequence | PBM E-score |
| --- | --- |
| CGGCGCTC | -0.168 |
| CTTCTCCC | -0.17 |
| AGTCTCGA | -0.0861 |
| GTCCAGCA | -0.0757 |
| CGGTGCTC | -0.0427 |
| ATAATACG | 0.213 |
| AACGGAAA | 0.254 |
| CAGGCCCG | -0.3 |
| ACATACTG | 0.174 |
| CACTCACG | 0.0681 |
| CTTTTGAA | 0.0208 |
| CCTAATCG | 0.155 |
| CTTGGAGA | 0.00966 |
| CGCGAAAA | 0.066 |
| AGTTAAGC | 0.195 |
| ACTAACAC | 0.111 |
| AAGTCTCA | -0.163 |
| CTAATGAA | 0.0931 |
| AAAGATAG | -0.0374 |
| AACGCATC | -0.0472 |
| GAGACTAA | -0.0764 |
| CACCCGCG | 0.199 |
| CGGGCAGC | -0.0992 |
| AGCCGTTA | -0.036 |
| GCGGGTCA | 0.0915 |

| Sequence | PBM E-score |
| --- | --- |
| GCCGCGGA | 0.123 |
| CTAGTCAG | -0.0157 |
| GGCCCTAA | -0.169 |
| CGGATCCG | 0.112 |
| TATAGGGA | -0.093 |
| TATTCCCA | -0.0266 |
| CAGAGTCA | -0.188 |
| AGATGGTC | -0.00207 |
| CGATCTTC | -0.0251 |
| AACTACGG | -0.0389 |
| CCCCGTTA | -0.0214 |
| AACGCTCT | -0.216 |
| AGGAGGTC | -0.322 |
| CAGCCCAG | -0.276 |
| CTTACAAG | -0.0954 |
| AAATTTGA | 0.122 |
| ACATACCT | 0.119 |
| GCGATTCC | 0.122 |
| GTACTGAC | 0.0117 |
| AAATGCCG | 0.0621 |
| CCGAACCA | -0.0203 |
| TCGGAGCA | -0.149 |
| ACCTGAGA | 0.0522 |
| AGCCCGCA | -0.0668 |
| AATGATTC | 0.161 |

| Sequence | PBM E-score |
| --- | --- |
| CCCTCTAC | -0.274 |
| ACCGACCC | -0.0538 |
| GAGCCCGA | -0.138 |
| ACCGCAGT | -0.0377 |
| AACCACTG | 0.0301 |
| AAAAGGAC | 0.0428 |
| GAGATTGC | -0.103 |
| AGCGTAGC | -0.11 |
| GAGTATTA | 0.178 |
| AATAGCGG | -0.0718 |
| GCAGAGTA | 0.0019 |
| CCTTCGTC | -0.106 |
| CTCCGCCC | -0.173 |
| CAAACGGC | -0.0907 |
| ATTGAAGG | -0.11 |
| CCTGTGAC | -0.111 |
| CCGGCATC | -0.194 |
| AAGCTGAC | 0.0725 |
| CAACACCG | -0.0768 |
| CTATAGTC | -0.063 |
| ATTCCTCG | 0.123 |
| AACCGTAT | -0.145 |
